# The campaign covered roughly 53,000 sequences. About 3,700 (7%) were called active.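 Rule for the calls: active = gene knockdowns whose robust z-score for IL-1 alpha signal is at least 2 or at most -2, so actives lie on both sides; inactive = the rest.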 The list shows a part of the results.
# Test: Components of the Cytosolic LPS Sensing Pathway: Gene Identification via Genome-wide siRNA Screen;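 note: robust z of the log signal after scaling to non-targeting control siRNA wells of the plate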
# Details: RAW264.7 macrophages, IL-1a HTRF, actives lie on both sides, screened at 100 nM (by protocol), cells primed 5 h with Pam3CSK4 first
# Outline: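 RAW264.7 mouse macrophages reverse-transfected with single siRNAs (100 nM final) for 48h, primed with Pam3CSK4 for 5 hours, then transfected with LipidA for 24 hour. Supernatant IL-1a read by HTRF; values normalized to negative-control median, log-transformed robust z-scores.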
row,Sequence,z-score
1,GGGACAUACAUAUCCUCCUTT against Cwc25,inactive: -1.47
2,GGAGGUCUGUCUGGAUCCATT against Cxcl5,inactive: -0.698
3,GGUCAAAGGACAAAGAUAATT against Atg7,inactive: -1.35
4,GCCUGUCACCUGUAGCAACTT against Krtap12-1,inactive: -0.434
5,GGGUUCAGCAUACCCUUCATT against Vmn1r227,inactive: 0.522
6,GGCUGUUACAUUCUAUAUUTT against Kif5c,inactive: -0.13
7,GCAUCAUUCGUUAUGCAAUTT against Itgax,inactive: 0.281
8,CGUGAUAGAUGGAAGCUACTT against Zcchc13,inactive: -0.155
9,CCAUACAGAUCGCACCCUGTT against Txndc15,active: -2.15
10,ACUGUUAACCAAGGAGAAATT against Ghrhr,inactive: -0.533
11,GGAAAUCUCUGGGAUUGUATT against Rpa3,inactive: -0.482
12,GCAAUUCAGCUUAUAAGCATT against Mterf2,active: -2.79
13,GGACAAGAGUGAGAAGGAATT against Yaf2,inactive: -1.5
14,GCGAUAUCUCAACUUCCCGTT against Fchsd1,inactive: 0.541
15,GGUGUAUAUCAACAUCAGUTT against Inpp5k,inactive: 0.454
16,GAAUGUGUUAUUCCCAAAATT against Olfr784,inactive: -0.119
17,GCGCAACUGUGUCCUGUUATT against Olfr133,inactive: -0.931
18,GGAGCCUCACUGAAUGUCUTT against Ankrd10,inactive: -0.736
19,GGAAAAAAAUGCUGUAUACTT against Insm1,inactive: -0.599
20,GGUAUUCAAUUGAUCGUCATT against Cdh11,inactive: 1.35
21,GGGCGGAGAAUGAAGCUUUTT against Gpatch3,inactive: 1
22,GGUAUUCUUUGAAGAAAACTT against Tbc1d14,inactive: 1.17
23,GGUUAUGAUGGGACUUCUCTT against Tmem37,inactive: -1.34

# Looked up one by one from the entries so far (2):
row,Sequence,z-score
18,GGAGCCUCACUGAAUGUCUTT against Ankrd10,inactive: -0.736
14,GCGAUAUCUCAACUUCCCGTT against Fchsd1,inactive: 0.541

# Next results follow:

row,Sequence,z-score
1,GGAUUACCACAGAGCUUCATT against Rhox3a,inactive: -1.38
2,GGGUUGAUCCCUUUGAUUCTT against Pld4,inactive: -0.268
3,CGGCACUCAACUCAGAUACTT against Commd1,inactive: 0.423
4,CCGAUUCUGAGAGUAACAATT against Alx4,inactive: 0.00497
5,GGAAAAAUGGUCUGUAAAATT against Adck2,inactive: 0.508
6,CCCAUGCACAUCAUGAGAATT against 4931429L15Rik,inactive: -1.16
7,GCAAUGCGACGUGCUCUAUTT against Trim67,inactive: 0.136
8,CCCACUACGUCAUACCACUTT against Olfr605,inactive: -0.888
9,GGGUUGAUUGACAGGUAAATT against H2-Q10,inactive: 0.92
10,CCAUGUGGUGAGGACUUCATT against Pkp4,inactive: 1.07
11,GGGUAUUCAUGAUGUCUUUTT against Kctd6,inactive: 1.39
12,UUGUCCUCACCUGUUUGUATT against Olfr748,inactive: -0.784
13,GCAGUGAAGUCCAAGUUAGTT against Pold3,inactive: -0.456
14,GGCUUAUCAUAUGAAGACATT against Aplp2,active: 2.33
15,GGUUCAUGUCAUCUUUAACTT against Calr,inactive: -1.21
16,GGAACUUGGAAUUUAGUUGTT against Pla2g4b,inactive: 1.43
17,GGAAUCGGAGUAGAAUCCGTT against Tcfl5,inactive: 0.694
18,GGCUUUCAUAUUCUGGAAUTT against Gabrb1,inactive: 0.12
19,GCAAGGUGUUCUGACCCAUTT against Rps6,inactive: -0.498
20,GCCUUGCUGUCAAACCACUTT against Krtap9-1,inactive: 0.998
21,GGGACUUCAAUCACAUCAATT against Rpl9,inactive: 0.549
22,GCUCUGGAACAAUUCCUGCTT against Cstl1,inactive: 0.393
23,GGAAUUAUCUCACGGCCAGTT against Il17c,inactive: 0.113

row,Sequence,z-score
1,GGCCGAGAAGAUCAAAGCATT against Mrpl12,inactive: -0.116
2,GGCCUUUAUUGACUCCAAGTT against Syn3,inactive: -0.851
3,AUGUCUCAGGUGCCUAAGGTT against Pramel26,inactive: 0.517
4,AGACUCUCUCUUGCACUAGTT against Retnla,inactive: -0.754
5,GCUAGAUAAACUCUCUCAATT against Cxcr5,inactive: 0.73
6,GGUCUUUCCAGAACAAAAATT against Rpa2,inactive: -1.87
7,GGAUCAAAGCCGUUCUUUUTT against Foxq1,inactive: 0.143
8,GGACAAAAGUGAUGUUAAATT against Gabrb2,inactive: 0.567
9,GGCUUCUGUUUUUAUUUGUTT against Zbtb7c,inactive: 1.07
10,CGCCUUGCCAAUAAGUGAATT against Ostf1,inactive: -0.198
11,GCCACACAGUGUGAUCCAATT against Nrip2,inactive: -1.33
12,GGCUUUGAGAGUUUGUCACTT against 2410004B18Rik,inactive: -1.62
13,CCUCUAGUUGUCCCUGAAATT against F12,inactive: 0.883
14,CCACUUCUACAUACUUAAUTT against Plau,inactive: 0.62
15,GGCAUUGAGAUGCUGGAAATT against Trappc4,active: 2.46
16,CCAGUUUAAGAGGAUUAUCTT against Ttc3,inactive: 0.681
17,GGAGGUAUCAGGUACCAACTT against Cpne6,inactive: 1.21
18,GGAAACUCGAAAUAUAUCUTT against Lancl3,inactive: 1.56
19,GGUCUCUGUACUUUGACUGTT against Cldn19,inactive: -1.2
20,GGACAAGAAGCCACUGACATT against Arrb1,active: 2.2
21,GGCACUUAAAAGCCGUAUUTT against Naif1,inactive: -1.25
22,GCCACGAUGUGUGGAAAUUTT against Cfh,inactive: 0.278
